The list shows a part of the results. Residues, ends and D or L forms follow the SMILES beside them. *: point of attachment. Cbz = O=C(OCc1ccccc1)*
What was measured:
Assay in all cases: log2 fold change, soluble protein after heating vs DMSO (PISA); higher = thermal stabilisation; K562 cells, 10 uM, 30 min; active = over 0.2 and 3.5 SD of the protein, either way, in both replicates (recomputed)
[1] = compound: C#Cc1cccc(Nc2ncnc3cc(OCCOC)c(OCCOC)cc23)c1 [erlotinib]
How it was run: (§1)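 K562 cells at 2×10^6 cells/mL were treated for 30 min with 10 μM compound, and aliquots were heated for 3 min over 48°C-58°C before pooling. Extraction used PBS with 0.5% NP-40 at 4°C, and soluble protein was the supernatant after 21,000xg for 90 min, measured by TMTpro 16plex LC-MS/MS with channel sums equalised. Thermal stability values, relative to control samples and from duplicates, are log2 fold changes.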

Amino acid sequences for entries named in this document (tags omitted). A change or cut given only in a name is not applied to a line headed by its entry.
UniProt Q9NRR8: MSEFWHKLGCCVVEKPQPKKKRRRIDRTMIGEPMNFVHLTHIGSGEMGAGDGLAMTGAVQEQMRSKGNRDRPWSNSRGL
UniProt Q14839: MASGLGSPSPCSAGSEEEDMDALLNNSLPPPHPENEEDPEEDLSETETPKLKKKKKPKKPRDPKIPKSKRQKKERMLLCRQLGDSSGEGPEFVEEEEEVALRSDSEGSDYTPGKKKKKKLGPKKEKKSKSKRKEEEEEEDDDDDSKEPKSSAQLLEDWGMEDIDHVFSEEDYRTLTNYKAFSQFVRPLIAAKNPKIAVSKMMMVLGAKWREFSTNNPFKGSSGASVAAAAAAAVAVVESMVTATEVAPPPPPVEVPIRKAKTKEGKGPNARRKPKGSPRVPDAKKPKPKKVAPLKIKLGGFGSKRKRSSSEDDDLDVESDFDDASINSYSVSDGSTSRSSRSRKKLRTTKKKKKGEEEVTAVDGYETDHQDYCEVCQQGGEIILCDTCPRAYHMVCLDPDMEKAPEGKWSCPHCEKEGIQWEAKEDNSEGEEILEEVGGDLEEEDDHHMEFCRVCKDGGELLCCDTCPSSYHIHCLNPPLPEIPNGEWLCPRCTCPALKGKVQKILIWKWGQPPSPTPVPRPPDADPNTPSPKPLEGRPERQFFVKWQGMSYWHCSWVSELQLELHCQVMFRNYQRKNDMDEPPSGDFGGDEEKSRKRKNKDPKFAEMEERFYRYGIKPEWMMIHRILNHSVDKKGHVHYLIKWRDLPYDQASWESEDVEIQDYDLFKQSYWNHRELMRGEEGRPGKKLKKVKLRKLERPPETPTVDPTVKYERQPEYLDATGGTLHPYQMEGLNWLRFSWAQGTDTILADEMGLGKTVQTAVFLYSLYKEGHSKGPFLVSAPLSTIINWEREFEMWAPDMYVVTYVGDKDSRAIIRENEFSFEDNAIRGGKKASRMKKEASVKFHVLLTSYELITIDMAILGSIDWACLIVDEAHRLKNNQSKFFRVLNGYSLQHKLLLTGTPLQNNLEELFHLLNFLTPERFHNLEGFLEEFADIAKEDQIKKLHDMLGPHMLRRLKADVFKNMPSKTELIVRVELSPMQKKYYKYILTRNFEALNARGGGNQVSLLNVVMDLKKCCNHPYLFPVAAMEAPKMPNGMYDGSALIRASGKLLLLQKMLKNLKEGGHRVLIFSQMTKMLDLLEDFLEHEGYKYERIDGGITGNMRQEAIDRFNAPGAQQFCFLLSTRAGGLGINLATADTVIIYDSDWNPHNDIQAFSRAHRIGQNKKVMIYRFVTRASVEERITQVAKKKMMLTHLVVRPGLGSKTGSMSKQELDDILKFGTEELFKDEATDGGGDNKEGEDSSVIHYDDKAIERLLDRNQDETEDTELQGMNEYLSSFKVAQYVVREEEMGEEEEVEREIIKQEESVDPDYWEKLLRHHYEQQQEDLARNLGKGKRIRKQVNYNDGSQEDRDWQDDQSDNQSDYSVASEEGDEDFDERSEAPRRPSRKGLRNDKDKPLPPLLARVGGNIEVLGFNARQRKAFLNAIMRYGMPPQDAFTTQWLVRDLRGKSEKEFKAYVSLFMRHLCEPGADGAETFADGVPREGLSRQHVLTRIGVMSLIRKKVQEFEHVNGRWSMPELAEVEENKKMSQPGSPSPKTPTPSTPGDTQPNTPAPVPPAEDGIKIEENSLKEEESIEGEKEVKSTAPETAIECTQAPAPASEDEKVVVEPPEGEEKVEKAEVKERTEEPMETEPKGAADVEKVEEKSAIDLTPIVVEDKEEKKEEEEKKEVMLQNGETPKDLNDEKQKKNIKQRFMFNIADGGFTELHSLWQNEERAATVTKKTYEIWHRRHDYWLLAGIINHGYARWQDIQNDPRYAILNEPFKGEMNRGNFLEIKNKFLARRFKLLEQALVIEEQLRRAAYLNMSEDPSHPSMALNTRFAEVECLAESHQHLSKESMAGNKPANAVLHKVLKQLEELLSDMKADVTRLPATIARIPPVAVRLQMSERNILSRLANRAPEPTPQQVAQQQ
UniProt Q9NXV6: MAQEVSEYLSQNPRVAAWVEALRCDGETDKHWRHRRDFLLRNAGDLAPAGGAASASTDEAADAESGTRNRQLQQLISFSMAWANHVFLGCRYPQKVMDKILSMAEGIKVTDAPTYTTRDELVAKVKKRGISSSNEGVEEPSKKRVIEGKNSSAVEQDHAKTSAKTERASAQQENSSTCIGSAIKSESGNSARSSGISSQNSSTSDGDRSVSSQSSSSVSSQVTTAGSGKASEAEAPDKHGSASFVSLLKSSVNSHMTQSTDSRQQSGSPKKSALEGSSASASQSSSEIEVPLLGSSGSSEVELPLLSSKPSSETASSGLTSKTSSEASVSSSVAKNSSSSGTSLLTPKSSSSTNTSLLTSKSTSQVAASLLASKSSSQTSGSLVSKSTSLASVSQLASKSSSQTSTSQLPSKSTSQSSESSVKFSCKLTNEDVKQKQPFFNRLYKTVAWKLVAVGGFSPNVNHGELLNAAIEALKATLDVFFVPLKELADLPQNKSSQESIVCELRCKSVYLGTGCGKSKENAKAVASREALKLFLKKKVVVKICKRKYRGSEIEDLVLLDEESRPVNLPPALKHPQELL
UniProt P35790, whole entry, looked up: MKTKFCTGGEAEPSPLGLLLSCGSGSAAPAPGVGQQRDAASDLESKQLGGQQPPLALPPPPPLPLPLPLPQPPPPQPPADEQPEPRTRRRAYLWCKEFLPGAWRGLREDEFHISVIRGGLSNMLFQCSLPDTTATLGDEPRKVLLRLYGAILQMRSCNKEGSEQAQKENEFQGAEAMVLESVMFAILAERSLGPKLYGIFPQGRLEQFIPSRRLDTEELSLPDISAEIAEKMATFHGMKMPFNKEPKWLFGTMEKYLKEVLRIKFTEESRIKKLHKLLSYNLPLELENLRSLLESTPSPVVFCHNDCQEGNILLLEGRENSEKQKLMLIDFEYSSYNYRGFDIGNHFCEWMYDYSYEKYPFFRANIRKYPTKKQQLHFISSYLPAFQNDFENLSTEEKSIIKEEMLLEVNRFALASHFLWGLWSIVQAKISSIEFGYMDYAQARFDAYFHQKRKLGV
UniProt Q00536: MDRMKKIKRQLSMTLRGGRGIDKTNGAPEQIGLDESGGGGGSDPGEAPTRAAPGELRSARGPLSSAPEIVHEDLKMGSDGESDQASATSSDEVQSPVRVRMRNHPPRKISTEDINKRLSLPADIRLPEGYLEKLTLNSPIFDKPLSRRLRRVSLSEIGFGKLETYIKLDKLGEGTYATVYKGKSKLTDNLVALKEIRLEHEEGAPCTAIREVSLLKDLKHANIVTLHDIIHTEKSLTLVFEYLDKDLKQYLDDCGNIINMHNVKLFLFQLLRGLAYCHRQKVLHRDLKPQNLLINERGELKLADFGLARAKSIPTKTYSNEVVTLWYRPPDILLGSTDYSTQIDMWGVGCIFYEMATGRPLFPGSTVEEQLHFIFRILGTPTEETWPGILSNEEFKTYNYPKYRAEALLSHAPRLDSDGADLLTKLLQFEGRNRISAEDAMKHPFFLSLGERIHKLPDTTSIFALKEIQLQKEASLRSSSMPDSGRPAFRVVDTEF
UniProt Q96G28: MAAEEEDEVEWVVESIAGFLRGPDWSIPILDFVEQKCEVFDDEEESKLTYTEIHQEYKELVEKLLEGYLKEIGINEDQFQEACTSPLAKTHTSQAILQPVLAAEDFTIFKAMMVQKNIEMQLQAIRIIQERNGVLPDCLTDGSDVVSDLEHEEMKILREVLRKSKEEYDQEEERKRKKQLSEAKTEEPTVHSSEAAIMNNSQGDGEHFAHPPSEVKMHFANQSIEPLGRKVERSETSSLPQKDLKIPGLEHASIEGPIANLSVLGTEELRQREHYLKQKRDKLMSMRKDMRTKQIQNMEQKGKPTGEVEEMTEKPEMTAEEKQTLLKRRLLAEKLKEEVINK
UniProt Q9UKJ5: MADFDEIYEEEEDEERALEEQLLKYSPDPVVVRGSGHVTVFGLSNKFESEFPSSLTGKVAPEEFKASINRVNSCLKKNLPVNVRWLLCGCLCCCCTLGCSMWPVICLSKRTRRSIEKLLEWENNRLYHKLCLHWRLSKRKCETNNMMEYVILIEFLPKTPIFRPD
UniProt Q9NRR3: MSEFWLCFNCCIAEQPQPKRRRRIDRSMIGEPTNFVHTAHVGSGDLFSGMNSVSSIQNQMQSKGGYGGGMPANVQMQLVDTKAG
UniProt Q9BV73: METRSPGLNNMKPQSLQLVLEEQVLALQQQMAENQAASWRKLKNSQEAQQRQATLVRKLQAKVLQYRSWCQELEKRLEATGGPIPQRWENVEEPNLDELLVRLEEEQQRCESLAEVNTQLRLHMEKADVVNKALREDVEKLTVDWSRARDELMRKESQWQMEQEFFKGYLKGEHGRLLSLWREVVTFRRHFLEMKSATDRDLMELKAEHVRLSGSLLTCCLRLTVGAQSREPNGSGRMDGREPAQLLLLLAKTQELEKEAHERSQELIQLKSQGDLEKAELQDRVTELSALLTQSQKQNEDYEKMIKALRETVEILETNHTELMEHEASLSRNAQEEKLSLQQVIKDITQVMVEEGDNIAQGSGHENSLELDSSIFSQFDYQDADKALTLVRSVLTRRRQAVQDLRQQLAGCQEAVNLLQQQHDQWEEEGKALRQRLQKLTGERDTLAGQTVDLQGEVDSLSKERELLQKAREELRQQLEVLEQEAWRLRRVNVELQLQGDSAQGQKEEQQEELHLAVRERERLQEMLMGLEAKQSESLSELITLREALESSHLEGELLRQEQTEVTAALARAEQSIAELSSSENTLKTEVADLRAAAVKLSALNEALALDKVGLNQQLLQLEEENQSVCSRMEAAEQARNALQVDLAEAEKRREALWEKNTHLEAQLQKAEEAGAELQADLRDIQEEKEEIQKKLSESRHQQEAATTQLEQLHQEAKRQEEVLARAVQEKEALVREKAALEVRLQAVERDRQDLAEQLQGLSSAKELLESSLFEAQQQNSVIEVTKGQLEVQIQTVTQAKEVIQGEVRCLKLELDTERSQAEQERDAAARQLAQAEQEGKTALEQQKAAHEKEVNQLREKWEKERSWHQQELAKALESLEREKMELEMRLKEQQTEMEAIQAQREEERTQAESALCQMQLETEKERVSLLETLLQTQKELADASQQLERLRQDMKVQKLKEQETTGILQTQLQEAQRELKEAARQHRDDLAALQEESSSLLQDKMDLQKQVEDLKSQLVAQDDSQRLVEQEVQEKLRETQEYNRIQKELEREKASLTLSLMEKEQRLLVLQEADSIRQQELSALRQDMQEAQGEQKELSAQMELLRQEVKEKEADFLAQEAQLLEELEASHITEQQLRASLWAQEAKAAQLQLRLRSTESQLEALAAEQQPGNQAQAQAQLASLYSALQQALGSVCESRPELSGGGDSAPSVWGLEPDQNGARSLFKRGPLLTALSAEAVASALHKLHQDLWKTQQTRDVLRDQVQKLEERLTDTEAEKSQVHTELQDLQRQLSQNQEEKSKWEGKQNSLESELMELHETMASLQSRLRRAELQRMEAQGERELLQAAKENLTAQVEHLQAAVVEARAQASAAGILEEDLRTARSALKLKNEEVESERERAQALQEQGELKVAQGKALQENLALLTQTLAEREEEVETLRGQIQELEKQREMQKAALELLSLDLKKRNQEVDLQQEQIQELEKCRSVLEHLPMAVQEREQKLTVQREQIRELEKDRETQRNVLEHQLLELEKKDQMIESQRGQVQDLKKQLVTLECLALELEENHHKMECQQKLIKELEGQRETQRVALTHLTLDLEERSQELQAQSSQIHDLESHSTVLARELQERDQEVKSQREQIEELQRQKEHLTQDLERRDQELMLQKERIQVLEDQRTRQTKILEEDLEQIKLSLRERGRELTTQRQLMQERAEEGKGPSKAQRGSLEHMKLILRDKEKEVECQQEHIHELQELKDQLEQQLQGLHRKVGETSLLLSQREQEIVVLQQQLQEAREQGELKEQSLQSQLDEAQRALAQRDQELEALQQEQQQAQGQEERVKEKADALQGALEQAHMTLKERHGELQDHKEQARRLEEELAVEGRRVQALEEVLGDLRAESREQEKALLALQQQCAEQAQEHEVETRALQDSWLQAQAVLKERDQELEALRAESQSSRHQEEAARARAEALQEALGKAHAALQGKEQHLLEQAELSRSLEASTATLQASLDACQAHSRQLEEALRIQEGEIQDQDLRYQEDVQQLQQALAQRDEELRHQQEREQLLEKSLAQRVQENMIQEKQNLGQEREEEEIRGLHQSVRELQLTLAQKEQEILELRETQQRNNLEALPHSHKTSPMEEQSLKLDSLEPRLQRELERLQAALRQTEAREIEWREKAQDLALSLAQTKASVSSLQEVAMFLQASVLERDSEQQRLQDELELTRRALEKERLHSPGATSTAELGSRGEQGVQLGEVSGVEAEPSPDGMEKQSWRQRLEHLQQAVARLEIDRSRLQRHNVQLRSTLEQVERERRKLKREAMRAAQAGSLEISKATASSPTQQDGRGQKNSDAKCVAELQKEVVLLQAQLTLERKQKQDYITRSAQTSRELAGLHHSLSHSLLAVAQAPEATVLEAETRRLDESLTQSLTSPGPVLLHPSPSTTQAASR

[2] = compound: C/C(=N\NC(=O)C1=CC(=CC=C1)S(=O)(=O)N2CCOCC2)/C3=C(C=CC(=C3)Cl)O
How it was run: as §1

[3] = compound: C1=CC(=C(C=C1Cl)C2=NC3=NC=CN=C3C(=N2)NC4=CC=NC=C4)F
How it was run: as §1

[4] = compound: C1=CC(=CC=C1C2=NC3=C(N2)C=C(C=C3)C(=O)N)OC4=CC=C(C=C4)Cl
How it was run: as §1

[5] = compound: C1=CC2=C(C=CC(=C2)/C=C\3/C(=O)NC(=NCC4=CC=CS4)S3)N=C1
How it was run: as §1

[6] = compound: C1=CC2=NC=CN=C2C=C1/C=C/3\C(=O)NC(=O)S3
How it was run: as §1

[7] = compound: C1=CC=C(C=C1)C2=NC(=C(N2)C3=CC=NC=C3)C4=CC(=C(C=C4)Cl)O
How it was run: as §1

[8] = compound: C1=CC=C2C(=C1)C3=NNC4=CC=CC(=C43)C2=O
How it was run: as §1

[9] = compound: C1CCN(C1)C(=O)NC2=CC=CC(=C2)NC3=NC=C(C(=N3)NCCC4=CN=CN4)Br
How it was run: as §1

[10] = compound: C1CN(CCC1(CC2=CC=C(C=C2)Cl)N)C3=NC=NC4=C3C=CN4
How it was run: as §1

[11] = compound: C1COCCN1CCN2C3=CC=CC=C3N=C2NC(=O)C4=CC(=CC=C4)[N+](=O)[O-] [IRAK-1-4 Inhibitor I]
How it was run: as §1

[12] = compound: C=CC(=O)N1CCC[C@@H](n2nc(-c3ccc(Oc4ccccc4)cc3)c3c(N)ncnc32)C1 [ibrutinib]
How it was run: as §1

[13] = compound: CC(=O)c1cnc2ccc(-c3cc(Cl)c(O)c(Cl)c3)nc2c1N[C@H]1CC[C@H](CN(C)C)CC1
How it was run: as §1

[14] = compound: CC(C)(C)Cn1c(N)nc2ccc(-c3[nH]c(C(C)(C)C)nc3-c3ccc(F)cc3)nc21 [ralimetinib]
How it was run: as §1

[15] = compound: CC(C)(O)CC(=O)NCCn1ccc2ncnc(Nc3ccc(Oc4cccc(C(F)(F)F)c4)c(Cl)c3)c21
How it was run: as §1

[16] = compound: CC(C)C1=C2N=C(C=C(N2N=C1)NCC3=CC=CC=C3)NCCCCCCN
How it was run: as §1

[17] = compound: CC(C)C[C@@H](C=O)NC(=O)[C@H](CC(C)C)NC(=O)[C@H](CC(C)C)NC(=O)OCc1ccccc1
How it was run: as §1

[18] = compound: CC(C)N(C[C@H]1O[C@@H](n2cnc3c(N)ncnc32)[C@H](O)[C@@H]1O)[C@H]1C[C@@H](CCc2nc3cc(C(C)(C)C)ccc3[nH]2)C1 [pinometostat]
How it was run: as §1

[19] = compound: CC1=C(C2=C(C=C1)C(=O)C3=CC=CC=C3N2CCCN)C
How it was run: as §1

[20] = compound: CC1=C(C(CC(=O)N1)C2=CC=C(C=C2)C(F)(F)F)C(=O)NC3=C(C=C4C(=C3)C=NN4)F
How it was run: as §1

Target | log2 fold change [1] | log2 fold change [2] | log2 fold change [3] | log2 fold change [4] | log2 fold change [5] | log2 fold change [6] | log2 fold change [7] | log2 fold change [8] | log2 fold change [9] | log2 fold change [10] | log2 fold change [11] | log2 fold change [12] | log2 fold change [13] | log2 fold change [14] | log2 fold change [15] | log2 fold change [16] | log2 fold change [17] | log2 fold change [18] | log2 fold change [19] | log2 fold change [20]
CDC42SE1 (UniProt Q9NRR8) | inactive: 0.078 | inactive: 0.041 | inactive: -0.005 | inactive: 0.014 | inactive: 0.021 | inactive: 0 | inactive: -0.009 | inactive: -0.207 | inactive: 0.023 | inactive: -0.012 | inactive: 0.066 | inactive: 0.049 | inactive: -0.004 | inactive: 0.021 | inactive: 0.042 | inactive: -0.111 | inactive: 0.074 | inactive: 0.11 | inactive: 0.015 | 
CHD3 isoform 3 (UniProt Q12873) | inactive: -0.052 | inactive: 0.148 | inactive: 0.005 | inactive: -0.062 | inactive: 0 | inactive: 0.034 | inactive: 0.388 | inactive: -0.123 | inactive: -0.125 | inactive: -0.093 | inactive: -0.052 | inactive: -0.1 | inactive: -0.284 | inactive: 0.36 | inactive: -0.075 | inactive: -0.319 | inactive: 0.186 | inactive: 0.071 | inactive: -0.009 | 
CHD4 isoform 2 (UniProt Q14839) | inactive: 0.042 | inactive: 0.103 | inactive: -0.011 | inactive: -0.007 | inactive: 0.029 | inactive: 0.034 | inactive: 0.044 | inactive: -0.08 | inactive: -0.047 | inactive: -0.1 | inactive: -0.198 | inactive: -0.106 | inactive: -0.215 | inactive: 0.112 | inactive: -0.067 | active: -0.313 | inactive: 0.045 | inactive: 0.07 | inactive: -0.057 | 
CDK9 isoform 2 (UniProt P50750) | inactive: 0.043 | inactive: -0.005 | inactive: -0.174 | inactive: 0.024 | inactive: -0.084 | inactive: 0.05 | inactive: 0.059 | inactive: -0.076 | inactive: -0.001 | inactive: -0.059 | inactive: -0.02 | inactive: -0.017 | inactive: 0.233 | inactive: -0.008 | inactive: 0 | inactive: -0.113 | inactive: 0.044 | inactive: 0.157 | inactive: -0.144 | 
CDKN2AIP (UniProt Q9NXV6) | inactive: 0.017 | inactive: -0.018 | inactive: 0 | inactive: 0.056 | inactive: 0.018 | inactive: 0.009 | inactive: 0.036 | inactive: 0.007 | inactive: -0.006 | inactive: -0.021 | inactive: -0.057 | inactive: 0.039 | inactive: 0.062 | inactive: 0.059 | inactive: 0.01 | inactive: 0.056 | inactive: -0.04 | inactive: 0.032 | active: 0.241 | 
CHERP (UniProt Q8IWX8) | inactive: 0.083 | inactive: 0.065 | inactive: 0.014 | inactive: 0.053 | inactive: -0.03 | inactive: 0.09 | inactive: 0.026 | inactive: -0.036 | inactive: -0.084 | inactive: -0.113 | inactive: -0.091 | inactive: -0.069 | active: -0.317 | inactive: 0.013 | inactive: -0.074 | inactive: -0.097 | inactive: 0.048 | inactive: 0.021 | inactive: -0.079 | 
CDC42EP1 (UniProt Q00587) | inactive: 0.09 | inactive: 0.063 | inactive: 0.006 | inactive: 0.115 | inactive: 0.136 | inactive: -0.011 | inactive: -0.005 | inactive: -0.086 | inactive: -0.133 | inactive: -0.001 | inactive: 0.097 | inactive: 0.086 | active: -0.527 | inactive: 0.076 | inactive: -0.104 | active: -0.43 | inactive: -0.009 | inactive: -0.043 | inactive: -0.055 | 
CHKA (UniProt P35790) | inactive: 0.012 | inactive: -0.008 | inactive: 0.036 | inactive: -0.018 | inactive: 0.001 | inactive: -0.119 | inactive: 0.069 | inactive: -0.188 | inactive: 0.005 | inactive: -0.021 | inactive: -0.034 | inactive: 0 | inactive: 0.085 | inactive: 0.006 | inactive: 0.057 | inactive: 0.113 | inactive: 0.019 | inactive: 0.088 | inactive: 0.079 | 
CDK16 isoform 2 (UniProt Q00536) | inactive: -0.072 | inactive: -0.025 | inactive: -0.023 | inactive: -0.07 | inactive: 0.043 | inactive: -0.016 | inactive: -0.024 | inactive: 0.121 | inactive: 0.139 | inactive: -0.029 | inactive: -0.029 | inactive: -0.018 | active: 0.843 | inactive: 0.05 | inactive: -0.031 | inactive: 0.069 | inactive: 0.059 | inactive: 0.016 | inactive: 0.025 | 
CFAP36 isoform 2 (UniProt Q96G28) | inactive: 0.048 | inactive: -0.11 | inactive: -0.046 | inactive: 0.005 | inactive: 0.059 | inactive: 0.042 | inactive: -0.068 | inactive: 0.007 | inactive: 0.127 | inactive: -0.111 | inactive: -0.183 | inactive: -0.022 | inactive: 0.001 | inactive: 0.053 | inactive: -0.012 | inactive: -0.09 | inactive: 0.065 | inactive: 0.024 | inactive: 0.103 | 
CETN2 (UniProt P41208) | inactive: 0.121 | inactive: -0.015 | inactive: -0.002 | inactive: 0.017 | inactive: -0.058 | inactive: 0.03 | inactive: -0.058 | inactive: -0.113 | inactive: 0.039 | inactive: 0.049 | inactive: -0.067 | inactive: 0.006 | inactive: -0.019 | inactive: -0.012 | inactive: 0.074 | inactive: 0.17 | inactive: 0.043 | inactive: 0.011 | inactive: -0.045 | 
CETN3 (UniProt O15182) | inactive: -0.098 | inactive: 0.009 | inactive: -0.065 | inactive: -0.022 | inactive: 0.027 | inactive: 0.077 | inactive: -0.12 | inactive: -0.055 | inactive: 0.041 | inactive: -0.125 | inactive: 0.031 | inactive: -0.022 | inactive: -0.006 | inactive: -0.075 | inactive: 0.035 | inactive: -0.038 | inactive: 0.039 | inactive: 0.016 | inactive: -0.18 | 
CHIC2 (UniProt Q9UKJ5) | inactive: -0.026 | inactive: -0.019 | inactive: -0.005 | inactive: -0.021 | inactive: 0.063 | inactive: 0.163 | inactive: -0.007 | inactive: 0.033 |  |  |  | inactive: -0.089 | inactive: 0 | inactive: 0.071 | inactive: -0.176 | inactive: -0.119 | inactive: -0.07 |  |  | inactive: -0.046
CEP192 (UniProt Q8TEP8) | inactive: 0.047 | inactive: -0.16 | inactive: -0.11 | inactive: -0.13 | inactive: 0.298 | inactive: -0.071 |  | inactive: -0.096 | inactive: 0.231 | inactive: -0.22 | inactive: -0.006 | inactive: -0.018 | inactive: -0.094 |  | inactive: 0.046 | inactive: 0.084 |  | inactive: 0.02 | inactive: 0.039 | inactive: 0.203
CDC42SE2 (UniProt Q9NRR3) | inactive: -0.175 | inactive: 0.319 | inactive: 0.068 | inactive: 0.007 | inactive: -0.024 | inactive: 0.021 |  | inactive: -0.054 | inactive: -0.093 | inactive: 0.146 |  | inactive: 0.062 | inactive: -0.27 |  | inactive: -0.106 | inactive: 0.117 |  |  | inactive: 0.248 | inactive: -0.01
CHAF1A (UniProt Q13111) | inactive: -0.046 | inactive: -0.014 | inactive: -0.121 | inactive: 0.053 | inactive: 0.027 | inactive: 0.135 | inactive: -0.047 | inactive: -0.114 |  |  | inactive: 0 | inactive: -0.143 | inactive: -0.118 | inactive: 0.056 | inactive: 0.067 | inactive: -0.066 | inactive: 0.08 | inactive: -0.028 |  | 
CEP250 (UniProt Q9BV73) | inactive: -0.149 |  | inactive: -0.145 | inactive: 0.042 |  | inactive: -0.036 | inactive: 0.074 |  | inactive: -0.073 | inactive: -0.132 | inactive: 0.011 | inactive: 0.068 |  | inactive: 0.007 | inactive: 0 | inactive: -0.155 | inactive: 0.064 | inactive: -0.032 | inactive: -0.102 | inactive: -0.117

Looked up one by one from the entries so far, two records:
Target | log2 fold change [1] | log2 fold change [2] | log2 fold change [3] | log2 fold change [4] | log2 fold change [5] | log2 fold change [6] | log2 fold change [7] | log2 fold change [8] | log2 fold change [9] | log2 fold change [10] | log2 fold change [11] | log2 fold change [12] | log2 fold change [13] | log2 fold change [14] | log2 fold change [15] | log2 fold change [16] | log2 fold change [17] | log2 fold change [18] | log2 fold change [19] | log2 fold change [20]
CEP192 (UniProt Q8TEP8) | inactive: 0.047 | inactive: -0.16 | inactive: -0.11 | inactive: -0.13 | inactive: 0.298 | inactive: -0.071 |  | inactive: -0.096 | inactive: 0.231 | inactive: -0.22 | inactive: -0.006 | inactive: -0.018 | inactive: -0.094 |  | inactive: 0.046 | inactive: 0.084 |  | inactive: 0.02 | inactive: 0.039 | inactive: 0.203
CHKA (UniProt P35790) | inactive: 0.012 | inactive: -0.008 | inactive: 0.036 | inactive: -0.018 | inactive: 0.001 | inactive: -0.119 | inactive: 0.069 | inactive: -0.188 | inactive: 0.005 | inactive: -0.021 | inactive: -0.034 | inactive: 0 | inactive: 0.085 | inactive: 0.006 | inactive: 0.057 | inactive: 0.113 | inactive: 0.019 | inactive: 0.088 | inactive: 0.079 | 
